Laboratory results: PMC9508853
These are yes or no findings as the source states them, for the method shown.

T1: Cactin/Cay1 (S. pombe) (UniProt O14342)
T1 sequence: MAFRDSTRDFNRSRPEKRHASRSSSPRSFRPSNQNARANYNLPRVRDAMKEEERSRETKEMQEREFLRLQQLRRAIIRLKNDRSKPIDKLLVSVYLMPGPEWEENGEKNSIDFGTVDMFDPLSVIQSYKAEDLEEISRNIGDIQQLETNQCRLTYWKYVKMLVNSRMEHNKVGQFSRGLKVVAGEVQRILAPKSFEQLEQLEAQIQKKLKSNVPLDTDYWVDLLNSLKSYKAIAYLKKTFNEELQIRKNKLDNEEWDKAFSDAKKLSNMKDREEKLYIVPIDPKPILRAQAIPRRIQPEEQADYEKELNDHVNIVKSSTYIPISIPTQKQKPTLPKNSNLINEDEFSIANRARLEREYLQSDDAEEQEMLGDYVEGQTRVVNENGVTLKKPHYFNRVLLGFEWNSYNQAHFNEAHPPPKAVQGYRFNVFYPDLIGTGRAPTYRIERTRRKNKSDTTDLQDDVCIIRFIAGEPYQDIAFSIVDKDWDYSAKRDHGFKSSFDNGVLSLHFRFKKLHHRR

T2: Tls1 (S. pombe) (UniProt Q10148)
T2 sequence: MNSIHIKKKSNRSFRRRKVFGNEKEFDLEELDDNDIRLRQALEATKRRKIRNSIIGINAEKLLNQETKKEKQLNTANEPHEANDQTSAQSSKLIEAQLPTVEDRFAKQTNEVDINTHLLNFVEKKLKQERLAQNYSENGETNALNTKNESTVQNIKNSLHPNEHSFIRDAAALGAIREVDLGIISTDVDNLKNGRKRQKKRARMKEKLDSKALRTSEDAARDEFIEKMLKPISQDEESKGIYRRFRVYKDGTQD


How the values were obtained:
[1] = target: T1, Cactin/Cay1 (S. pombe); assay: two-hybrid; yeast two-hybrid assays (Supplementary Figure S11B); bait and prey orientation and conditions not given
[2] = target: T2, Tls1 (S. pombe); assay: as above

| binding [1] | binding [2] | Binder |
| --- | --- | --- |
| no binding | no binding | Sde2 (protein, UniProt O14113 1-263) MECKTVFLNGDFLKNSVNVNLNRLATVETLLRHVLGDSYETVLERAYLTHQSRIVHPDIQLCKLEGKSTSAHLNLTLCTRVLGGKGGFGSQLRAAGGRMSKKRNEQENQDSCRDLDGNRLGTIRQAKELSEYLAKKPAETRAKKEAKKQKLNKVLAADSSSSRFDDHEYLEDLEQSVSNVRDAFQNSLLYRRGSTSASSFSSGSNGATTDEPAEKEARNNNSSINSWSRRMQASESSNEAEGEDSESQTSKSLYEWDDPLYGL |
|  | no binding | Cactin/Cay1 (protein, UniProt O14342 1-517) MAFRDSTRDFNRSRPEKRHASRSSSPRSFRPSNQNARANYNLPRVRDAMKEEERSRETKEMQEREFLRLQQLRRAIIRLKNDRSKPIDKLLVSVYLMPGPEWEENGEKNSIDFGTVDMFDPLSVIQSYKAEDLEEISRNIGDIQQLETNQCRLTYWKYVKMLVNSRMEHNKVGQFSRGLKVVAGEVQRILAPKSFEQLEQLEAQIQKKLKSNVPLDTDYWVDLLNSLKSYKAIAYLKKTFNEELQIRKNKLDNEEWDKAFSDAKKLSNMKDREEKLYIVPIDPKPILRAQAIPRRIQPEEQADYEKELNDHVNIVKSSTYIPISIPTQKQKPTLPKNSNLINEDEFSIANRARLEREYLQSDDAEEQEMLGDYVEGQTRVVNENGVTLKKPHYFNRVLLGFEWNSYNQAHFNEAHPPPKAVQGYRFNVFYPDLIGTGRAPTYRIERTRRKNKSDTTDLQDDVCIIRFIAGEPYQDIAFSIVDKDWDYSAKRDHGFKSSFDNGVLSLHFRFKKLHHRR |
